No constants are given. Whether binding was seen depends on the method and setting. Binding seen in cells or lysates may run through a third protein. Some binding calls cover weakened binding; strength is not graded here.
Target: alpha-enolase (ENO1) (human (endogenous in endometrial stromal cells from patients)) (UniProt P06733)
Assay: co-IP; primary antibody against KAT2A or ENO1 added to the extracted protein, overnight at 4°C; protein A/G beads 4°C, 2 h; blot for ENO1 and KAT2A

Protein sequences, listed by entry. Tags and fused reporters are not part of them.
UniProt P06733: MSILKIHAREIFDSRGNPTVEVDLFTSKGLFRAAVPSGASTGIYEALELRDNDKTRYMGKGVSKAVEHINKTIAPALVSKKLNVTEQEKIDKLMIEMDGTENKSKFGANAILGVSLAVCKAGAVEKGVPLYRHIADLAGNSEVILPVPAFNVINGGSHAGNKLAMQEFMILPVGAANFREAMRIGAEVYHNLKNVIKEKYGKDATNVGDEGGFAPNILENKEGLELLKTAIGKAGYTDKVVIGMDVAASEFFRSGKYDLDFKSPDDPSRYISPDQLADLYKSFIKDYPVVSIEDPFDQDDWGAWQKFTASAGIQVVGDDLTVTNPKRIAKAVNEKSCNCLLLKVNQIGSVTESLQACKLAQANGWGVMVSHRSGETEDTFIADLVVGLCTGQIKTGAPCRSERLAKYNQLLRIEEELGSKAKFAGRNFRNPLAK
UniProt Q92830: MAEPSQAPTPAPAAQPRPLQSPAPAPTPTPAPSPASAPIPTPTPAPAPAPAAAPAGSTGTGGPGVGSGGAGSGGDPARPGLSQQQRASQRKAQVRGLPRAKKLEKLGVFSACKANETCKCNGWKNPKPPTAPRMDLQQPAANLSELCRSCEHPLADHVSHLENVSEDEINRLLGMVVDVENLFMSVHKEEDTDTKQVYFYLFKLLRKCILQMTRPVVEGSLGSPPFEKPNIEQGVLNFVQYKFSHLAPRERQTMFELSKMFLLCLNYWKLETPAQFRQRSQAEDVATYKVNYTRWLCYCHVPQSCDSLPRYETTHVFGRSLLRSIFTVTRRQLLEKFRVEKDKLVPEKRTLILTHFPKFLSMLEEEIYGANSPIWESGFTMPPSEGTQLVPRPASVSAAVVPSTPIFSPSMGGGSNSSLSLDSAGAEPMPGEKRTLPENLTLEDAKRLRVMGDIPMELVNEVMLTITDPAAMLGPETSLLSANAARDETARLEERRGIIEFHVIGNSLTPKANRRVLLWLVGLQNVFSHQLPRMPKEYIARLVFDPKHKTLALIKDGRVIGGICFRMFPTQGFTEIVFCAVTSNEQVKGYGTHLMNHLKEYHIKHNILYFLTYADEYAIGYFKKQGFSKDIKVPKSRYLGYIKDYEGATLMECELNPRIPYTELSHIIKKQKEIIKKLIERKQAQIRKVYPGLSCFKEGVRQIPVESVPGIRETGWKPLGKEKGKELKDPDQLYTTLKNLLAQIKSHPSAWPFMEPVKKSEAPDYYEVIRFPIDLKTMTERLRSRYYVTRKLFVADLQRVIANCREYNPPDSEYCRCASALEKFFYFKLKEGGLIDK

**Q.** With “lysine acetyltransferase 2A (KAT2A) (from UniProt Q92830 1-837) (enzyme)” as the substance, how does the binding read?
**A.** The binding was “binds”.

— article PMC10997078
